Our source for the binding values is publication PMC7237485.

Sequences of proteins named here, by UniProt entry; tags and fusion partners are left off. A change or cut given only in a name is not applied to a line headed by its entry.
UniProt Q969H0: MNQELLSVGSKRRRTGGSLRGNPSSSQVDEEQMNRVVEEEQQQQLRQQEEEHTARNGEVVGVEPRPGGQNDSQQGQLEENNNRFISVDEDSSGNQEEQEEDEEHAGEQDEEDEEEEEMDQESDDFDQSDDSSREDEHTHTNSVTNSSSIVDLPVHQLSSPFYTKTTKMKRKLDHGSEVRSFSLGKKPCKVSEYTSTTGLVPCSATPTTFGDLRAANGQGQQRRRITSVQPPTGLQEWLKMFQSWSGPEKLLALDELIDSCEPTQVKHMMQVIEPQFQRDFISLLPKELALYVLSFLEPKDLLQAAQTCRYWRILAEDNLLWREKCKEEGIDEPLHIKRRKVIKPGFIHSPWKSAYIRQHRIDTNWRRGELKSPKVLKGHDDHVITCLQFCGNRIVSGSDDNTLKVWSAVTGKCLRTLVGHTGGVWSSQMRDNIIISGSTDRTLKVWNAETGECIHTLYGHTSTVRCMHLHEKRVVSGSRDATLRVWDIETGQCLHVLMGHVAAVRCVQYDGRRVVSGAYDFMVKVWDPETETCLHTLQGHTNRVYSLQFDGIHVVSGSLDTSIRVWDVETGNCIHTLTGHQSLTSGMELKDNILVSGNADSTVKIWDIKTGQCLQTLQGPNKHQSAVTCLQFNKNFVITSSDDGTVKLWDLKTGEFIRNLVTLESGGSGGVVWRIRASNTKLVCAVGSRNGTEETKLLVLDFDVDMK
UniProt P01106: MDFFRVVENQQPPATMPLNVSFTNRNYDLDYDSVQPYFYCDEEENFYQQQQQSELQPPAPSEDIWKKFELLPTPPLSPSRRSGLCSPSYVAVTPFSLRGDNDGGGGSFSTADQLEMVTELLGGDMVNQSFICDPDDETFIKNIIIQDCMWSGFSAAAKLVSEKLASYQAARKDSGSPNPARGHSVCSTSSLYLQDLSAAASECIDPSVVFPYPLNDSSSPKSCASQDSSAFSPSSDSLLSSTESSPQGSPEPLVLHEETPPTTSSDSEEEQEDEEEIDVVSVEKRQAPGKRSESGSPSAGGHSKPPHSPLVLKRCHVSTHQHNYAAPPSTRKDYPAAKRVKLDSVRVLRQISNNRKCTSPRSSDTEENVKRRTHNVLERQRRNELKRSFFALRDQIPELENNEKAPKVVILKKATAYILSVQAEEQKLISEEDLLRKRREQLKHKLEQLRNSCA

The target of assay [1] is HA-tagged FBW7ΔDF V375A/K377N (human) (UniProt Q969H0). Nature of the assay: proximity ligation; U2OS cells co-expressing LT, c-Myc, cyclin E or sT with FBW7ΔDF (WT) or V375A/K377N (mut), 48 h post transfection; Duolink in situ; puncta per cell and fluorescence intensity by microscopy.
The target of assay [2] is HA-tagged WT WD40 (FBW7ΔDF) (human) (UniProt Q969H0). Described as above.

These are yes or no findings as the source states them, for the method shown. Binding seen in cells or lysates may run through a third protein. A result given as binding can be weak or reduced; the word gives no strength.

Consider c-Myc (from UniProt P01106 1-454), for which the binding entry in assay [1] and in assay [2] was “binds” throughout.
